Results published in patent US8148097B2, “Screening method for identification of compounds with calcium-independent phospholipase A2β (iPLA2β) modulating activity” (Washington University, priority 2005, dated 2012).
Some of these results come from one statement about several compounds together.

Target: T1, iPLA2β (Cricetulus griseus, UniProt A0A3L7I2I8)
T1 construct: (His)6; made in house; host or cells: Sf9 insect cells (baculovirus)
T1 sequence (A0A3L7I2I8 1-752 isoform A0A3L7I2I8-2): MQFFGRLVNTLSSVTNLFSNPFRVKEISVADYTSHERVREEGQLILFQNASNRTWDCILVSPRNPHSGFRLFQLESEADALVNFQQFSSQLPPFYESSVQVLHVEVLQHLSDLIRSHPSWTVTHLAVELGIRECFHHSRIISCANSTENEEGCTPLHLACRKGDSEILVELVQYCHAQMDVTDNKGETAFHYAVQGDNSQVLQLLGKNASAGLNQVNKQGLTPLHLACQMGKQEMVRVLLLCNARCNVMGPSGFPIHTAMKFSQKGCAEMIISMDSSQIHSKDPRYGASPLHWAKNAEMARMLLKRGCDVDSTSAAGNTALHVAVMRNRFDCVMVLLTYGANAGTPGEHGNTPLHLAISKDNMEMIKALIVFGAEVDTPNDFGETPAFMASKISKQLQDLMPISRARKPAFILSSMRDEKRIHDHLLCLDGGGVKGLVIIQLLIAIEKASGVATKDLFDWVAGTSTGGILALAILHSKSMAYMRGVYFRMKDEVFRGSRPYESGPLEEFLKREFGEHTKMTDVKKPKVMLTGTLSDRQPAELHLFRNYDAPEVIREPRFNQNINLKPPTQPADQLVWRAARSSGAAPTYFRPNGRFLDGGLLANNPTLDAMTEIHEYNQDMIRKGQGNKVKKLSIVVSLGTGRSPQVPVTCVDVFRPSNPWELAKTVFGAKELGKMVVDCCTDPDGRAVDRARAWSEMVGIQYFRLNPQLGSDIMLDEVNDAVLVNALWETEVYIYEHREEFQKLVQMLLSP
Test: iPLA2β-catalyzed acyl-CoA hydrolysis (substrate rate and selectivity)
Format: biochemical
Details: acyl-CoA guest 5 mol % in POPC/DOPS bilayers, FIG. 2

Row | SMILES | selectivity of hydrolysis in comparison to stearoyl-, oleoyl-, and arachidonyl-CoAs
1 | CCCCCCCCCCCCCCCC(=O)SCCNC(=O)CCNC(=O)[C@H](O)C(C)(C)COP(=O)(O)OP(=O)(O)OC[C@H]1O[C@@H](n2cnc3c(N)ncnc32)[C@H](O)[C@@H]1OP(=O)(O)O [palmitoyl-CoA] | up to 20 fold
2 | CCCCCCCCCCCCCC(=O)SCCNC(=O)CCNC(=O)[C@H](O)C(C)(C)COP(=O)(O)OP(=O)(O)OC[C@H]1O[C@@H](n2cnc3c(N)ncnc32)[C@H](O)[C@@H]1OP(=O)(O)O [myristoyl-CoA] | up to 20 fold
